Drawing on PMC6987099, this text covers binding for 1 substance.

Protein sequences, listed by entry. Tags and fused reporters are not part of them.
UniProt P56279: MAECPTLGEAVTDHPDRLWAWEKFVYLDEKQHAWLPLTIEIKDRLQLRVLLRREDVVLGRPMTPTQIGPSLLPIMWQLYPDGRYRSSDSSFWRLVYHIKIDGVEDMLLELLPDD

These are yes or no findings as the source states them, for the method shown. In cells and extracts the contact can be indirect. Some entries that bind do so weakly or less than the wild type.

For test [1], the target named is TCL1A-Myc (UniProt P56279). The experiment in a line: condition: only cells treated with AUY-922 (HSP90 inhibitor); co-IP; TCL1A-Myc-transfected HEK293 cells treated with DMSO or AUY-922 as indicated; lysates immunoprecipitated with anti-Myc antibody; blot with anti-Myc and anti-HSP90A.
The target in test [2] is TCL1A-Myc (UniProt P56279). In words: co-IP; HEK293 cells transfected with pME18-myc/TCL1 for 24 h; NP40 lysis buffer (50 mM Tris-HCl pH 8.0, 5 mM EDTA, 150 mM NaCl, 1% NP-40, 1 mM PMSF); immunoprecipitation with 1 ug anti-Myc antibody or mouse IgG for 16 h; blot with anti-HSP90A.

In the case of HSP90A (from UniProt P07900 1-732), the binding entry was “no binding” with TCL1A-Myc [1] and “binds” with TCL1A-Myc [2].
